According to patent publication US10370327B2, “Ionic liquid films with multiple functionalities for surface modification of biomedical alloys” (BOARD OF REGENTS, THE UNIVERSITY OF TEXAS SYSTEM, priority 2014, dated 2019):
Some results were stated once for a whole list of compounds, not compound by compound. At least one compound was matched to its structure with a doubt left.

Tested on: Pseudomonas aeruginosa PA14, Enterococcus faecalis V583, Staphylococcus epidermidis, Streptococcus mutans UA159, Streptococcus salivarius 13419, Streptococcus …
Assay type: cell-based
Conditions: eight bacterial strains, broth microdilution, compared with IC50 (FIG. 7)

SMILES: CC(C)C[C@H](N)C(=O)O.CC(C)C[C@H](N)C(=O)O.C[n+]1ccn(CCCCCCCCCCn2cc[n+](C)c2)c1 [IL-10, 1,10-Bis(3-methylimidazolium-1-yl)decane dileucine]
- MIC: lower MIC values with high IC50
